Values joined by “and” are separate entries in the source; they are usually repeats but may differ in a detail not shown here. Equal values may be shown once. Some of the results follow. Further columns of the screen follow, without active or inactive calls. The list favours compounds with an active or inconclusive main result. Potencies come from curve fits of mixed quality, noted in brackets.
Assay: qHTS Assay to Find Inhibitors of Chronic Active B-Cell Receptor Signaling
Details: ABC-DLBCL IkBa-CBG/CBR reporter, luminescence ratio (green luciferase fused to IkBa over red control in TMD8 lymphoma cells), 4 h
Method in brief: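 TMD8 human ABC-DLBCL cells with doxycycline-inducible IκBα–green luciferase fusion and unfused red luciferase, in 0.5% FBS medium; compounds up to 46 uM, 4 h at 37C. Green/red luminescence ratio, filter-overlap corrected, fitted to concentration-response curves.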

[1] = measured here: CBR red luminescence, cell number
[2] = measured here: IkBa-CBG green luminescence

Row | SMILES | AC50 [1] | AC50 [2]
1 | O=C(NCc1ccco1)Nc1ccc([N+](=O)[O-])cc1 | 11.2 µM [falling, partial curve, poor fit] and 35.5 µM [falling, single point] | –
2 | O=C(NNC(=S)Nc1ccccc1)c1cccc(Br)c1 | 3.66 µM [falling, partial curve, poor fit] | –
3 | CN1CCN(CCP(=O)(c2ccccc2)c2ccccc2)CC1 | 0.206 µM [rising, full curve, poor fit] | –
4 | O=C(COC(=O)c1ccncc1)Nc1ccccc1 | 35.5 µM [falling, single point] | –
5 | CC(=O)c1ccc(NC(=O)C2CCCN(S(=O)(=O)c3cccc4nonc34)C2)cc1 (configuration not stated) | 17.8 µM [rising, partial curve, poor fit] | –
6 | COCc1c(C(=O)OCC(=O)N2CCCC2=O)oc2ccccc12 | 23.1 µM [falling, partial curve, poor fit] | –
7 | N#CCc1nc(CSc2nc3ccccc3o2)cs1 | 10 µM [rising, partial curve, poor fit] | –
8 | COc1ccc(-c2ccc(/C=C(\NC(=O)c3ccccc3)C(=O)N3CCOCC3)o2)cc1 | 22.4 µM [falling, single point] | –
9 | CCCCC(=O)NNC(=O)N1c2ccccc2Sc2ccccc21 | 1.58 µM [rising, full curve, poor fit] | –
10 | COc1ccc(-c2nc3cc(C)ccn3c2NC2CCCCC2)cc1SC1CCCCC1 | 0.731 µM [falling, full curve] | –
11 | CCOC(=O)C1(Cc2cccc(OC)c2)CCN(Cc2cccc(OC)c2OC)CC1 | 0.1 µM [rising, full curve, poor fit] | –
12 | COc1ccc(C2/C(=C(/O)c3ccccc3)C(=O)C(=O)N2C)cc1OC (configuration not stated) | 5.62 µM [rising, single point] | –
13 | N/C(=N\OC(=O)C1CCCCC1)c1ccccn1 | 35.5 µM [falling, single point] | –
14 | Cc1ccc(C(OCC(O)CNCc2ccc(F)cc2)c2ccccc2)cc1 (configuration not stated) | 35.5 µM [falling, single point] | –
15 | O=C(CCN1C(=O)/C(=C\c2cccs2)SC1=S)Nc1ccccn1 | 3.55 µM [falling, partial curve] | –
16 | COCCOC(=O)C1=C(C)NC(C)=C(C(=O)OCCOC)C1/C=C/c1ccccc1OC | 15.8 µM [rising, partial curve, poor fit] | –
17 | Cc1ccc(C)c(NC(=O)c2nnn(Cc3ccccc3)c2N)c1 | 1.12 µM [falling, full curve, poor fit] | –
18 | COc1cccc(Cl)c1NC(=O)N1CCN(c2cc(C)nc3ccccc23)CC1 | 35.5 µM [falling, single point] | –
19 | CCOC(=O)C(=Cc1ccc(-c2ccsc2C(=O)OC)o1)C(=O)OCC | 7.94 µM [falling, partial curve, poor fit] | –
20 | Cc1ccc(S(=O)(=O)N(CC(=O)NCc2cccs2)c2ccccc2)cc1 | 6.51 µM [falling, partial curve, poor fit] | –
21 | O=C(CC1SC(N2CCOCC2)=NC1=O)Nc1cccc(C(F)(F)F)c1 (configuration not stated) | 13 µM [rising, partial curve, poor fit] | –
22 | COCCN1C(=O)c2ccccc2C(C(=O)NCCN(C)C)C1c1ccc(F)cc1 (configuration not stated) | 11.2 µM [falling, single point] | –

Row | SMILES | AC50 [1] | AC50 [2]
23 | CCCCC(=O)OCc1c(-c2ccccc2)ncc2ccccc12 | 16.4 µM [falling, partial curve] | –
24 | CN(C)CC(=O)Nc1nc(-c2ccccc2)cs1 | 4.11 µM [falling, single point] | –
25 | O=C(CCCc1nc(-c2ccc(Cl)cc2)no1)Nc1cccnc1 | 23.1 µM [falling, single point] | –
26 | N#Cc1ccccc1OCC(=O)Nc1nnc(C2CC2)s1 | 10.3 µM [falling, partial curve, poor fit] | –
27 | CCOc1ccc(C(=O)Nc2cc(C)c3c(=O)oc4ccccc4c3n2)cc1 | 20.6 µM [falling, partial curve, poor fit] | –
28 | O=C(CSc1nnc(Nc2ccccc2F)s1)c1cc2ccccc2o1 | 25.9 µM [falling, single point] | –
29 | NC(=O)CC(NC(=O)Cc1cccc2ccccc12)c1ccc(NCCOc2ccccc2)c([N+](=O)[O-])c1 (configuration not stated) | 2 µM [falling, full curve] | –
30 | CSc1cccc(NC(=O)c2cnn3ccccc23)c1 | 11.2 µM [falling, single point] | –
31 | COc1ccccc1-c1ccc(NC2CCCC2)nn1 | 11.6 µM [falling, partial curve] | –
32 | CCCCS(=O)Cc1ccccc1 (configuration not stated) | 18.4 µM [rising, single point] | –
33 | O=C(CSc1nc2ccccc2n1Cc1ccccc1)N/N=C/c1ccco1 | 23.1 µM [falling, single point] | –
34 | Cc1cc(=O)[nH]c(SCC(=O)Nc2nc(-c3ccccc3)c(-c3ccccc3)o2)n1 | 0.146 µM [falling, full curve] | –
35 | O=C(Nc1ncc2c(n1)-c1ccccc1CC2)c1cccs1 | 8.91 µM [falling, partial curve] | –
36 | Nc1ccc(Cl)cc1C(=O)OCC(=O)NC1CCS(=O)(=O)C1 (configuration not stated) | 20 µM [falling, single point] | –
37 | C=CCOc1c(CNc2cccc(C(=O)O)c2)cccc1OCC | 8.91 µM [falling, single point] | –
38 | O=C(c1ccco1)N1CCN(C(=O)c2cc(-c3ccccc3F)no2)CC1 | 11.2 µM [rising, partial curve] | –
39 | COc1cc(C(=O)NCCc2ccccc2)ccc1OCC(=O)N1CCOCC1 | 23.1 µM [falling, single point] | –
40 | CC1CCc2nn(CC(=O)NCc3ccco3)cc2C1 (configuration not stated) | 1.03 µM [rising, partial curve, poor fit] | –
41 | Cc1ccc(/C=N\Nc2nc3ccc(Cl)cc3[nH]2)o1 | 7.94 µM [falling, partial curve] | –
42 | Cc1cccc(NC(=O)CCC(=O)OCc2ccc(Br)cc2)c1 | 7.31 µM [rising, partial curve, poor fit] | –
43 | CCN1CCN(C(=S)c2ccc(OCC(=O)NCc3ccccc3)cc2)CC1 | 20 µM [rising, partial curve, poor fit] | –
44 | CCN1C(=O)CS/C1=N\c1nccs1 | 0.731 µM [falling, full curve, poor fit] | –

Row | SMILES | AC50 [1] | AC50 [2]
45 | Oc1ccccc1-c1nc(NCc2cccnc2)c2ccccc2n1 | 8.91 µM [falling, partial curve] | 3.55 µM [rising, partial curve]
46 | COC(=O)c1coc(-c2ccc(C)cc2)c1C(=O)OC | 35.5 µM [rising, single point] | –
47 | O=C(COc1ccccc1C(=O)NCc1ccccc1)Nc1ccccc1 | 4.61 µM [falling, partial curve, poor fit] | –
48 | Cc1cccc(NC(=O)Cn2nnc3ccccc32)c1 | 1.41 µM [rising, full curve] | –
49 | COc1ccc(OCCN2CCN(C(=O)c3ccc(OC)c(OC)c3)CC2)cc1 | 35.5 µM [rising, single point] | –
50 | Cc1ccc(C(=O)C2CCN(C(=O)c3ccc(C)cc3)CC2)cc1 | 10 µM [falling, partial curve, poor fit] | –
51 | Cc1cccc(NC(=O)Cc2ccc(F)cc2)c1 | 0.0517 µM [rising, full curve, poor fit] | –
52 | C/C(=N\NC(=O)c1ccc([N+](=O)[O-])cc1Cl)c1ccccc1 | 6.31 µM [rising, full curve, poor fit] | –
53 | C/C(N)=C(/C#N)C(=O)COC(=O)c1cc(-c2ccc(C)cc2)nc2ccccc12 | 1.64 µM [rising, partial curve, poor fit] | –
54 | O=C(OCCN1CCCCC1)c1ccccc1Br | 0.1 µM [rising, full curve, poor fit] | –
55 | COCCNC(=O)/C(C#N)=C/C=C/c1ccccc1[N+](=O)[O-] | 22.4 µM [falling, single point] | –
56 | CCOc1ccc(CN(C)C(=O)CCl)cc1 | 10 µM [falling, partial curve] | –
57 | COC(=O)CSc1nnc(NC(=O)C2CC(=O)N(c3ccc(F)cc3)C2)s1 (configuration not stated) | 35.5 µM [falling, single point] | –
58 | COc1ccc(NC(=O)c2ccc([N+](=O)[O-])o2)cc1 | 14.1 µM [falling, single point] | –
59 | Cc1ccc(C(=O)c2oc3ccccc3c2NC(=O)c2cc(-c3ccccc3O)n[nH]2)cc1 | 11.6 µM [falling, partial curve] | 23.1 µM [falling, partial curve, poor fit]
60 | Cc1ccc(C(=O)/C=C/NNC(=O)c2ccccc2O)cc1 | 12.6 µM [falling, partial curve] | –
61 | O=C(CNC(=S)N(Cc1ccccc1)Cc1ccccc1F)NCc1ccccc1 | 17.8 µM [falling, single point] | –
62 | O=C(NC(=S)N1CCN(c2ccc(C(F)(F)F)cc2[N+](=O)[O-])CC1)c1cccs1 | – | 18.4 µM [falling, single point]
63 | CCc1nn2cc(-c3ccccc3)nc2s1 | 11.6 µM [falling, partial curve, poor fit] | –
64 | CCn1c2ccccc2c2nnc(SCCCn3c(=O)[nH]c4ccccc43)nc21 | 2.82 µM [falling, full curve, poor fit] | –
65 | O=C(O)c1ccc(-c2nc(-c3ccccc3)c(-c3ccccc3)[nH]2)cc1 | 23.1 µM [falling, single point] | –

Shown in markdown: part of the list above

| Row | SMILES | AC50 [1] | AC50 [2] |
| --- | --- | --- | --- |
| 62 | O=C(NC(=S)N1CCN(c2ccc(C(F)(F)F)cc2[N+](=O)[O-])CC1)c1cccs1 | – | 18.4 µM [falling, single point] |
| 63 | CCc1nn2cc(-c3ccccc3)nc2s1 | 11.6 µM [falling, partial curve, poor fit] | – |
| 64 | CCn1c2ccccc2c2nnc(SCCCn3c(=O)[nH]c4ccccc43)nc21 | 2.82 µM [falling, full curve, poor fit] | – |

Reference: PubChem BioAssay AID493014 (National Center for Advancing Translational Sciences (NCATS), 2011)
